Screen size: about 330,000 compounds; about 7,700 (2.3%) were called active. The inconclusive results got no clear call from the source; some entries with a clear call stand among them for comparison. The call rests on the fitted dose curve; in most records, active means well fitted inhibition curve with a large enough effect; inconclusive means small, poorly fitted or top-dose-only effect, or effect the other way; inactive means flat fitted curve, though single readings scatter. A potency beside an inconclusive call is a rough fit, not a confirmed value.
Assay: qHTS screen for small molecules that inhibit ELG1-dependent DNA repair in human embryonic kidney (HEK293T) cells expressing luciferase-tagged ELG1; further: nearly all actives have a fitted effect of over 55% in size
Details: HEK293T ELG1-luciferase reporter, luminescence, 16 h, DNA damage induced by 5-fluorouridine; activity change, negative = inhibition: at 46.1 µM (top of the series)
Procedure, shortened: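 Cells (2,000 per well) received 5-fluorouridine plus test compound or DMSO and were incubated 16 hr at 37 °C, 5% CO2. Luciferase activity was read by luminescence 30 min after ONE-Glo addition; signal suppression marked inhibition of damage-induced ELG1 function.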
On the % scale 0 is the no-effect control and ±100 the full control effect; potency means the concentration at half of the fitted maximal effect.

Structure (SMILES)	activity change, negative = inhibition	Potency
NS(=O)(=O)c1ccc(CNC(=O)c2cccnc2Cl)cc1	inactive: 7.26%	
COc1ccc(-c2cc3nc4n(c(=O)c3s2)CCC4)cc1		inconclusive: 0.651 µM [activator, full curve]
CCOc1ccc(OCCC(=O)OCC(=O)NCc2ccc(Cl)cc2)cc1		inconclusive: 20.6 µM [activator, partial curve, poor fit]
Cc1cc2c(cc1C)/C(=N/NC(=O)c1ccccn1)CCC2		inconclusive: 2.06 µM [activator, partial curve, poor fit]
COc1cc(CN2CCNC(=O)C2CC(=O)N2CCCN(C(C)=O)CC2)cc(OC)c1 (stereo not given)	inactive: -0.0406%	
COc1cccc(NC(=O)CSc2nnc(CNC(=O)c3ccco3)n2C)c1		inconclusive: 9.2 µM [activator, partial curve]
CCOC(=O)c1c2ccc(OCC(=O)NN)cc2n2ccccc12		inconclusive: 29.1 µM [inhibitor, single point]
Cc1ccc(C(=O)N2CCCC(CCC(=O)N3CCN(c4ccccn4)CC3)C2)s1 (stereo not given)		inconclusive: 18.3 µM [inhibitor, single point]
CC(OC(=O)Cc1ccccc1F)C(=O)Nc1ccc(Cl)cn1 (stereo not given)	inactive: 0.485%	
CCOC(=O)C1=C(c2ccccc2)NC(=S)NC1c1cc([N+](=O)[O-])ccc1OC (stereo not given)	inactive: 13.6%	
CCOC(=O)C(C)On1c(-c2ccccc2)nc2ccc([N+](=O)[O-])cc21 (stereo not given)		inconclusive: 1.64 µM [activator, partial curve, poor fit]
COC(=O)c1[nH]c2cccc(Cl)c2c1NC(=O)CN1CCCCC1C (stereo not given)		inconclusive: 0.58 µM [inhibitor, single point]
Cc1cc(C)c(NC(=S)NC(NC(=O)c2ccccc2)C(Cl)(Cl)Cl)c(C)c1 (stereo not given)		inconclusive: 5.17 µM [inhibitor, full curve, poor fit]
CCOC(=O)Cn1ccc(NC(=O)c2ccc3c(c2)OCO3)n1	inactive: 9.54%	
O=C(c1ccco1)N1CCN(Cc2nnc(-c3ccccc3)o2)CC1	inactive: 0.989%	
Cc1ccc2c(c1)C(=NC1CCCCC1)c1cc3ccccc3nc1-2		inconclusive: 2.31 µM [activator, full curve]
O=C(OCC(O)CO)c1ccccc1Nc1ccnc2cc(Cl)ccc12 (stereo not given)		inconclusive: 20.6 µM [inhibitor, single point]
O=C(CSc1nnc(NC(=O)c2ccc3c(c2)OCO3)s1)NCc1ccco1		inconclusive: 1.83 µM [activator, full curve]
O=C(O)c1cc(-c2cccnc2)nc2ccccc12		inconclusive: 29.1 µM [activator, partial curve, poor fit]
CCOc1ccc(-c2nc(C#N)c(N3CCN(Cc4ccccc4)CC3)o2)cc1		inconclusive: 23.1 µM [inhibitor, single point]
O=C(COC(=O)CCSc1ccccc1)NCc1ccc(F)cc1	inactive: 3.92%	
CCOC(=O)C1=C(NC(=S)NC(=O)c2ccccc2)c2ccccc2CC1C(C)C (stereo not given)	inactive: -1.56%	
Cc1nc(NC(=O)C2CC3CCCC(C2)C3=O)sc1C (stereo not given)		inconclusive: 13 µM [activator, partial curve]

Laid out differently: 11 of the compounds above
Structure (SMILES),"activity change, negative = inhibition",Potency
COc1ccc(-c2cc3nc4n(c(=O)c3s2)CCC4)cc1,,"inconclusive: 0.651 µM [activator, full curve]"
COc1cc(CN2CCNC(=O)C2CC(=O)N2CCCN(C(C)=O)CC2)cc(OC)c1 (stereo not given),inactive: -0.0406%,
COc1cccc(NC(=O)CSc2nnc(CNC(=O)c3ccco3)n2C)c1,,"inconclusive: 9.2 µM [activator, partial curve]"
CCOC(=O)C1=C(c2ccccc2)NC(=S)NC1c1cc([N+](=O)[O-])ccc1OC (stereo not given),inactive: 13.6%,
CCOC(=O)C(C)On1c(-c2ccccc2)nc2ccc([N+](=O)[O-])cc21 (stereo not given),,"inconclusive: 1.64 µM [activator, partial curve, poor fit]"
CCOC(=O)Cn1ccc(NC(=O)c2ccc3c(c2)OCO3)n1,inactive: 9.54%,
O=C(OCC(O)CO)c1ccccc1Nc1ccnc2cc(Cl)ccc12 (stereo not given),,"inconclusive: 20.6 µM [inhibitor, single point]"
O=C(O)c1cc(-c2cccnc2)nc2ccccc12,,"inconclusive: 29.1 µM [activator, partial curve, poor fit]"
CCOc1ccc(-c2nc(C#N)c(N3CCN(Cc4ccccc4)CC3)o2)cc1,,"inconclusive: 23.1 µM [inhibitor, single point]"
CCOC(=O)C1=C(NC(=S)NC(=O)c2ccccc2)c2ccccc2CC1C(C)C (stereo not given),inactive: -1.56%,
Cc1nc(NC(=O)C2CC3CCCC(C2)C3=O)sc1C (stereo not given),,"inconclusive: 13 µM [activator, partial curve]"

Additional results

Structure (SMILES)	activity change, negative = inhibition	Potency
CCOC(=O)Cc1cnc(NC(=O)CSc2nc3ncnc(N)c3[nH]2)s1	inactive: -12.3%	
O=C(COc1ccc(Cl)cc1)NCCc1ccccn1	inactive: 12.7%	
COc1ccc(OC)c(CCNC(=O)c2cccc(NC3=NC4CS(=O)(=O)CC4S3)c2)c1 (stereo not given)	inactive: 1.12%	
CCOCC(=O)Nc1cc(C(=O)OC)cc(C(=O)OC)c1	inactive: -10.9%	
Cc1cnc([N+](=O)[O-])n1CCOC(=O)NC(=O)c1ccccc1Cl	inactive: 17.7%	
Cc1ccc2nc(-c3ccc(NC(=O)CN(c4ccccc4C)S(C)(=O)=O)cc3)sc2c1		inconclusive: 2.59 µM [activator, partial curve]
COc1ccc(C2=CC(c3ccc(OC)c(OC)c3)n3nnnc3N2)c(OC)c1 (stereo not given)		inconclusive: 16.4 µM [inhibitor, single point]
O=C(N[C@@H]1CCC(=O)N(CC[C@H](Sc2ccc(Br)cc2)c2ccccc2)CC1)OCc1ccccc1		inconclusive: 18.3 µM [inhibitor, partial curve, poor fit]
CCOc1ccc(/C=N/NC(=O)c2ccccc2NC(=O)c2ccc(OC)cc2)cc1		inconclusive: 2.06 µM [activator, partial curve]
O=C(Nc1ccccc1)N1CCc2scc[n+]2-c2ccccc21		inconclusive: 11.6 µM [inhibitor, partial curve, poor fit]
Cc1csc(SCC(=O)Nc2nncs2)n1	inactive: 12.7%	
CC(=O)c1ccc(NC(=O)CSc2ccc(-c3ccco3)nn2)cc1	inactive: -6.42%	
CCN(Cc1ccccc1)S(=O)(=O)c1ccc(C(=O)Nc2nnc(C3CC3)o2)cc1		active: 11.6 µM
COc1cc(OC)cc(-c2oc(=O)c3cc(OC)c(OC)cc3c2C#CCCCO)c1		inconclusive: 5.17 µM [inhibitor, single point]
Cc1c(CNCCCc2ccccc2)c(C(=O)O)c(C)n1Cc1ccccc1	inconclusive: 23.1% [activator]	
CCOC(=O)N1CCN(S(=O)(=O)c2ccc(C(=O)Nc3nc4ccc(F)cc4s3)cc2)CC1	inactive: -23.6%	
C/C(=N\NC(=O)c1ccc(N(C)C)cc1)c1cccnc1		inconclusive: 29.1 µM [activator, single point]
Cc1cccc(NC(=O)CCn2ccnc2C)c1		inconclusive: 23.1 µM [activator, partial curve, poor fit]
COC(=O)c1cc(OC)c(OC)cc1NC(=O)c1cc(-c2ccccc2)nc2ccccc12		inconclusive: 1.84 µM [inhibitor, partial curve, poor fit]
CCC(NC(=O)Cc1c(C)c2ccc(OC)c(C)c2oc1=O)C(=O)NC(Cc1ccc(Cl)cc1)C(=O)O (stereo not given)		inconclusive: 1.03 µM [activator, full curve, poor fit]
CC(/C=N/NC(=O)c1ccc(CN2c3cccc4cccc(c34)S2(=O)=O)cc1)c1ccccc1 (stereo not given)		inconclusive: 16.4 µM [inhibitor, partial curve]
O=c1[nH]c(Cc2ccccc2Cl)nc2ccccc12	inactive: -3.02%	
